Results from the supplement of paper PMC10849652.
This is one part of the list.

Sequences of proteins named here, by UniProt entry; tags and fusion partners are left off. A change or cut given only in a name is not applied to a line headed by its entry.
UniProt O00748: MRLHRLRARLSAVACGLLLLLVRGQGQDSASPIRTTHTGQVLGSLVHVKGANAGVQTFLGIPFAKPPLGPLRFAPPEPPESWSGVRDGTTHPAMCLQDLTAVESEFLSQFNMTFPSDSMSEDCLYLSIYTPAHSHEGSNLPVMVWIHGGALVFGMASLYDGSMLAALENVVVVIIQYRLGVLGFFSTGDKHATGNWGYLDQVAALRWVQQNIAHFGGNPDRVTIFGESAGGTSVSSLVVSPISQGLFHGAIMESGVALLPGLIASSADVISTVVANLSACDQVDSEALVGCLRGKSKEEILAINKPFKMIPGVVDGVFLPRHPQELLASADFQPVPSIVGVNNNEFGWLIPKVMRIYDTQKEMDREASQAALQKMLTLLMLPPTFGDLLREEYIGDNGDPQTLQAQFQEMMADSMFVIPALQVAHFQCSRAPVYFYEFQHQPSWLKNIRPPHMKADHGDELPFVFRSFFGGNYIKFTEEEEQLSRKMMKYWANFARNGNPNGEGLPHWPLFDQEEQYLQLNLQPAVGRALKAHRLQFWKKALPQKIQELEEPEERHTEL
UniProt Q12834, whole entry, looked up: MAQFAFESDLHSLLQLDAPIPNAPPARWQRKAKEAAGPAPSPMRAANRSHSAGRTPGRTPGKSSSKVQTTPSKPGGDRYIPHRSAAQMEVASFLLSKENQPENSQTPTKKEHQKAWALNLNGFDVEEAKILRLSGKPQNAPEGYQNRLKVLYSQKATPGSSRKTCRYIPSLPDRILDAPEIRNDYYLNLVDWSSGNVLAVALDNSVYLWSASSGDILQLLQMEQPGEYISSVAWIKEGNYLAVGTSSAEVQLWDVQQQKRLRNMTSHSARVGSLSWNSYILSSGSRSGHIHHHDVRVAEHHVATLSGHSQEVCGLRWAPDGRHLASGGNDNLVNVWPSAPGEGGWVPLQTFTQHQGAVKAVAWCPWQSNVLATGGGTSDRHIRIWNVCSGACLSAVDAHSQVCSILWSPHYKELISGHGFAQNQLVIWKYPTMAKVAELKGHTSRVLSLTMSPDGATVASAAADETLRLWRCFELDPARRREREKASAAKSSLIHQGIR
UniProt Q15517: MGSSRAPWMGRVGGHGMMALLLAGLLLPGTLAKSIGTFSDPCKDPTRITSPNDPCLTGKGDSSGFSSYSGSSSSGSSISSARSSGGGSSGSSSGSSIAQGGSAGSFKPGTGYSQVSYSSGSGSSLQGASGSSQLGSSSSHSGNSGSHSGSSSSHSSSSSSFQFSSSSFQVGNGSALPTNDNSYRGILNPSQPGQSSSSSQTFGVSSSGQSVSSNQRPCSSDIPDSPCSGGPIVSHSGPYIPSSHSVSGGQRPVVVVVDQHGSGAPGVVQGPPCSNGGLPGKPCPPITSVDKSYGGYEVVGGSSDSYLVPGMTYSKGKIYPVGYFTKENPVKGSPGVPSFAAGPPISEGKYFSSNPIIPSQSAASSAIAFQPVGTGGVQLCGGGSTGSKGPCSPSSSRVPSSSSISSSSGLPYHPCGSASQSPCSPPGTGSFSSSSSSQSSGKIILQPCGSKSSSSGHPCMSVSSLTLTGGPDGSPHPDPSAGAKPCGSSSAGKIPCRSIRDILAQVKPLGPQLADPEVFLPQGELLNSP
UniProt O14519: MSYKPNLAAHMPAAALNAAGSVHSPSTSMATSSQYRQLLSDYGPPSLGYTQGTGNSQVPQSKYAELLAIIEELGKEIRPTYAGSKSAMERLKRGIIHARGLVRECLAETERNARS
UniProt O75794: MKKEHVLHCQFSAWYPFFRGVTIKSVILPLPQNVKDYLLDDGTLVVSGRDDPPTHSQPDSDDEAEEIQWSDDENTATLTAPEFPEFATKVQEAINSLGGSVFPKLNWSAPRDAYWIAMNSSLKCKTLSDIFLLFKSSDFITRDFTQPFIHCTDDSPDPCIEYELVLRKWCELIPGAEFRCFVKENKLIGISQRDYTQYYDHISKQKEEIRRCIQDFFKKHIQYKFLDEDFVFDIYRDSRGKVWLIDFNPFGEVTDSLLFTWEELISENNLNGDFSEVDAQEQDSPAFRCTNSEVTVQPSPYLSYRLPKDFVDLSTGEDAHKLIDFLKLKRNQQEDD
UniProt P30305: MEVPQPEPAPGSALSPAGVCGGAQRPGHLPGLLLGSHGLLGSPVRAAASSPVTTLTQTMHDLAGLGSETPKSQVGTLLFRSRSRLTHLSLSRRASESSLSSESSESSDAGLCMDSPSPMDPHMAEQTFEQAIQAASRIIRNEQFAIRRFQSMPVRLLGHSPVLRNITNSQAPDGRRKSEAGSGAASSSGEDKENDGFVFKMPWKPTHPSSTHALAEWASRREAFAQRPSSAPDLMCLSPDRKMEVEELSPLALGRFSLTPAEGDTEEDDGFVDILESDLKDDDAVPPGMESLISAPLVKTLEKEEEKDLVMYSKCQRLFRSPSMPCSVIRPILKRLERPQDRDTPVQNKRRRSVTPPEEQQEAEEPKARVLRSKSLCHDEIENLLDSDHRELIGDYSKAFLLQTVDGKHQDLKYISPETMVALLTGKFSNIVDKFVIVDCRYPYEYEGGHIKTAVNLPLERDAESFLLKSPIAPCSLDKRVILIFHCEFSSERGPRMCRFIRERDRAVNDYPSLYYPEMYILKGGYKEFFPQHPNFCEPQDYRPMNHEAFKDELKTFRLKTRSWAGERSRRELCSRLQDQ
UniProt Q01850: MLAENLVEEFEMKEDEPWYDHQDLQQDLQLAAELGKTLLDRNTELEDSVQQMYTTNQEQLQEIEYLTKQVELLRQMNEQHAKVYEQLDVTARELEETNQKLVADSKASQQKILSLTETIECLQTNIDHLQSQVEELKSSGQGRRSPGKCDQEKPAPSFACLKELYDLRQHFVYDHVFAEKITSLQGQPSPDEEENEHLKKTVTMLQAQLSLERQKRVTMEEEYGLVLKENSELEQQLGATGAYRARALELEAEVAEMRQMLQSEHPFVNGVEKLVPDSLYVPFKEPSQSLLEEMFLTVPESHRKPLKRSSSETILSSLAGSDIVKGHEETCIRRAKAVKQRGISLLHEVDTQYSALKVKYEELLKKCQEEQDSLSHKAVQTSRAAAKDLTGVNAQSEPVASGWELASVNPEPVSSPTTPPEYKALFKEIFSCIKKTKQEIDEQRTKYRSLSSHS
UniProt Q03701: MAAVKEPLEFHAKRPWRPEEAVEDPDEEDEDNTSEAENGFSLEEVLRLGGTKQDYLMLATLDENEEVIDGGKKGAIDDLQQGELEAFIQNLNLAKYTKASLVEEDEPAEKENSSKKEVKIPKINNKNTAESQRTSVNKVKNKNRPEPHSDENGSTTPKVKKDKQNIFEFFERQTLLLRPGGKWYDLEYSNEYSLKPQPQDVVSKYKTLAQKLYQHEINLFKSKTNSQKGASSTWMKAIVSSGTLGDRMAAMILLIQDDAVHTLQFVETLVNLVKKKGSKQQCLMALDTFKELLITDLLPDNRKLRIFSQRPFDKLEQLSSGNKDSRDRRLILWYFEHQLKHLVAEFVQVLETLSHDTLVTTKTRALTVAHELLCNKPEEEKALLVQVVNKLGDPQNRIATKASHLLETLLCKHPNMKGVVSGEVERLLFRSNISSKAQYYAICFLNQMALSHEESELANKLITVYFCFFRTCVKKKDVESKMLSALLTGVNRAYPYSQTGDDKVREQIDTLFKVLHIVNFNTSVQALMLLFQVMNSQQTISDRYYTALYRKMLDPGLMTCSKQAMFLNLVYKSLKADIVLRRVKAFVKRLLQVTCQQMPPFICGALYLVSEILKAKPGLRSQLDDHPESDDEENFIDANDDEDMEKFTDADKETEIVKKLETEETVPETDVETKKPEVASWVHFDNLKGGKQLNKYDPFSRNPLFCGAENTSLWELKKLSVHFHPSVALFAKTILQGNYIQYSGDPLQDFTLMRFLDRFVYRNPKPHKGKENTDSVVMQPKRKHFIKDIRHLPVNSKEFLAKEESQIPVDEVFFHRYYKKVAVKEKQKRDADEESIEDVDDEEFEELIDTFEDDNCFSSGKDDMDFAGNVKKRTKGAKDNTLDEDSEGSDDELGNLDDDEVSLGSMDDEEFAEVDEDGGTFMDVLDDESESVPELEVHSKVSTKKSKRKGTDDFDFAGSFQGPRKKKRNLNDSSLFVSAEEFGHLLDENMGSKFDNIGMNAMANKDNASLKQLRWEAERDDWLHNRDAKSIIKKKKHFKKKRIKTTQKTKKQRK
UniProt O14735: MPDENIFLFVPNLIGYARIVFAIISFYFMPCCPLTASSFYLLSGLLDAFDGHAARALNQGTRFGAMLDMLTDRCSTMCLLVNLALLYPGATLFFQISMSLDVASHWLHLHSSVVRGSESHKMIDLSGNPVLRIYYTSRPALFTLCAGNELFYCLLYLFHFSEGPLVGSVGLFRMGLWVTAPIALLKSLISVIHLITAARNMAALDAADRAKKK
UniProt Q9Y6A4: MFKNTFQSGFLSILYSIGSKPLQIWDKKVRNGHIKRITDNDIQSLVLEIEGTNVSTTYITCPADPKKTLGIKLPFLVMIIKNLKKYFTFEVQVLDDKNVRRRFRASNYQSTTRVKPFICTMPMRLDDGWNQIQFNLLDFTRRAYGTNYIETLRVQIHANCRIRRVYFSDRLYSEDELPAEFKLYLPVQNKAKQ
UniProt Q8WUX2: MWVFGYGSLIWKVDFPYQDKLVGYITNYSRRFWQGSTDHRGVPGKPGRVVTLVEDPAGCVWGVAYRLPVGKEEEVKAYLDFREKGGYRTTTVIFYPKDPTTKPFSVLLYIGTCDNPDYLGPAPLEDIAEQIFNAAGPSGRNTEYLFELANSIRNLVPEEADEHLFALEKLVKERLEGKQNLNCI
UniProt Q9Y5P4: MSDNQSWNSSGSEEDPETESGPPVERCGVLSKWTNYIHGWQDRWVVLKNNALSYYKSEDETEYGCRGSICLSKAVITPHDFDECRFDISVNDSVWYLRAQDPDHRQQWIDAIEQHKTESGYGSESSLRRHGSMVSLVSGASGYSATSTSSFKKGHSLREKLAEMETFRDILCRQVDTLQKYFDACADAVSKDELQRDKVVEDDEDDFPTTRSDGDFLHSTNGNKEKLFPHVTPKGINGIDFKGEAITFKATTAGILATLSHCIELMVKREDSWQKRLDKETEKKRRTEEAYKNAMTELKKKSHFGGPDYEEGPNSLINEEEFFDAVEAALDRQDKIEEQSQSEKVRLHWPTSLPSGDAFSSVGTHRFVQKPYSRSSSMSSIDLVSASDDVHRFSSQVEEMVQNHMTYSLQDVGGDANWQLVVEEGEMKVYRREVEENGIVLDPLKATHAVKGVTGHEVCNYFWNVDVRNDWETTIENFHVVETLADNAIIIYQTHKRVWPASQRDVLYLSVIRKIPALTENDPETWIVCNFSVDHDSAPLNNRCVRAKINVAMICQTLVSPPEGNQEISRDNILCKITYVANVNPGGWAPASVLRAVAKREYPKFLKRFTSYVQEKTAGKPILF
UniProt Q7L3B6: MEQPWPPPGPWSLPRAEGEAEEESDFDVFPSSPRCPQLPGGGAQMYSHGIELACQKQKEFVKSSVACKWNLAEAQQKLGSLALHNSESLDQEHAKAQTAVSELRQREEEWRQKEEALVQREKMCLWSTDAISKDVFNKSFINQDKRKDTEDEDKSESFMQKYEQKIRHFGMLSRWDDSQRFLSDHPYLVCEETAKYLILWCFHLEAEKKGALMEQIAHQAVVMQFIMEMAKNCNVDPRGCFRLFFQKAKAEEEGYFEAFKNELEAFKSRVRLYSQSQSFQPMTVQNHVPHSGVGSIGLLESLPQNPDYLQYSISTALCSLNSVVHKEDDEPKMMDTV
UniProt Q9BS16: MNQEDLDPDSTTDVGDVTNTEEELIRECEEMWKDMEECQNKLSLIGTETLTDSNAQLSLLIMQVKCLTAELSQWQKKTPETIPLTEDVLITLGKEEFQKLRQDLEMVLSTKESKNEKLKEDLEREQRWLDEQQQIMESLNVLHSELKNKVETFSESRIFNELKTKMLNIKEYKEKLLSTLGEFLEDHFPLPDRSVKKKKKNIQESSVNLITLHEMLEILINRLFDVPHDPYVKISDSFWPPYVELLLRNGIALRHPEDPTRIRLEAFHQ

Legend:
Test in all cases: log2 fold change, soluble protein after heating vs DMSO (PISA); higher = thermal stabilisation; K562 lysate, 10 uM; active = over 0.2 and 3.5 SD of the protein, either way, in both replicates (recomputed)
vemurafenib = compound: CCCS(=O)(=O)Nc1ccc(F)c(C(=O)c2c[nH]c3ncc(-c4ccc(Cl)cc4)cc23)c1F [vemurafenib]
Summary of the method: (§1)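 Log-two fold change in thermal stability relative to solvent controls is reported from duplicates. For each sample, crude K562 extract from dounce-homogenised pellets in PBS pH 7.4 with 1 mM MgCl2, at 1 mg/mL protein, was treated with 10 μM compound for 30 min. Aliquots heated for 3 min across 48°C-58°C were pooled, brought to 0.5% NP-40 at 4°C and cleared at 21,000xg for 90 min. The supernatant was quantified by TMTpro 16plex LC-MS/MS with channel sums equalised.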

[1] = compound: CCCS(=O)(=O)Nc1ccc(F)c(C(=O)c2c[nH]c3ncc(Cl)cc23)c1F
Summary of the method: as §1

barasertib = compound: CCN(CCCOc1ccc2c(Nc3cc(CC(=O)Nc4cccc(F)c4)[nH]n3)ncnc2c1)CCOP(=O)(O)O [barasertib]
Summary of the method: as §1

[2] = compound: CC[C@@H]1C(=O)N(C)c2cnc(Nc3ccc(C(=O)NC4CCN(C)CC4)cc3OC)nc2N1C1CCCC1
Summary of the method: as §1

volasertib = compound: CC[C@@H]1C(=O)N(C)c2cnc(Nc3ccc(C(=O)N[C@H]4CC[C@H](N5CCN(CC6CC6)CC5)CC4)cc3OC)nc2N1C(C)C [volasertib]
Summary of the method: as §1

[3] = compound: CCn1c(C(=O)N(C2CC2)C2CC2)cc2c3c(ncn3C)c(Nc3cc(C)n(C)n3)nc21
Summary of the method: as §1

[4] = compound: CCn1cc(-c2ccnc3[nH]c(-c4cccc(CN(C)C)c4)cc23)c(-c2ccc(NC(=O)N(C)C)cc2)n1
Summary of the method: as §1

[5] = compound: CN1CCC(CNc2ccc3ncc(-c4cccc(OC(F)(F)F)c4)n3n2)CC1
Summary of the method: as §1

saracatinib = compound: CN1CCN(CCOc2cc(OC3CCOCC3)c3c(Nc4c(Cl)ccc5c4OCO5)ncnc3c2)CC1 [saracatinib]
Summary of the method: as §1

sotrastaurin = compound: CN1CCN(c2nc(C3=C(c4c[nH]c5ccccc45)C(=O)NC3=O)c3ccccc3n2)CC1 [sotrastaurin]
Summary of the method: as §1

alvocidib = compound: CN1CC[C@H](c2c(O)cc(O)c3c(=O)cc(-c4ccccc4Cl)oc23)[C@H](O)C1 [alvocidib]
Summary of the method: as §1

Tubastatin A = compound: CN1CCc2c(c3ccccc3n2Cc2ccc(C(=O)NO)cc2)C1 [Tubastatin A]
Summary of the method: as §1

[6] = compound: CNC(=O)C1=CC=CC=C1NC2=NC(=NC=C2Cl)NC3=C(C=C(C=C3)N4CCOCC4)OC
Summary of the method: as §1

defactinib = compound: CNC(=O)c1ccc(Nc2ncc(C(F)(F)F)c(NCc3nccnc3N(C)S(C)(=O)=O)n2)cc1 [defactinib]
Summary of the method: as §1

[7] = compound: CNc1nc(-c2ccc3c(N)n[nH]c3c2)cc(N2C[C@@H](C(=O)NC3CCCCC3)CC[C@H]2C)n1
Summary of the method: as §1

encorafenib = compound: COC(=O)N[C@@H](C)CNc1nccc(-c2cn(C(C)C)nc2-c2cc(Cl)cc(NS(C)(=O)=O)c2F)n1 [encorafenib]
Summary of the method: as §1

[8] = compound: COC(=O)[C@H](CCSC)NC(=O)C1=C(C=C(C=C1)NC[C@H](CS)N)C2=CC=CC=C2
Summary of the method: as §1

alisertib = compound: COc1cc(Nc2ncc3c(n2)-c2ccc(Cl)cc2C(c2c(F)cccc2OC)=NC3)ccc1C(=O)O [alisertib]
Summary of the method: as §1

[9] = compound: COc1cc2nc(-c3cc(F)ccc3O)nc(N[C@@H]3CNC[C@H]3C(C)(C)O)c2cc1OC
Summary of the method: as §1

gefitinib = compound: COc1cc2ncnc(Nc3ccc(F)c(Cl)c3)c2cc1OCCCN1CCOCC1 [gefitinib]
Summary of the method: as §1

Target	log2 fold change (vemurafenib)	log2 fold change [1]	log2 fold change (barasertib)	log2 fold change [2]	log2 fold change (volasertib)	log2 fold change [3]	log2 fold change [4]	log2 fold change [5]	log2 fold change (saracatinib)	log2 fold change (sotrastaurin)	log2 fold change (alvocidib)	log2 fold change (Tubastatin A)	log2 fold change [6]	log2 fold change (defactinib)	log2 fold change [7]	log2 fold change (encorafenib)	log2 fold change [8]	log2 fold change (alisertib)	log2 fold change [9]	log2 fold change (gefitinib)
CES2 isoform 4 (UniProt O00748)	inactive: 0.03	inactive: -0.024	inactive: -0.052	inactive: -0.012	inactive: 0.004	inactive: -0.046	inactive: 0.002	inactive: 0.034	inactive: -0.001	inactive: -0.017	inactive: 0.021	inactive: -0.065	inactive: 0.09	inactive: -0.111	inactive: 0.219	inactive: 0.075	inactive: 0.01	inactive: -0.084	inactive: -0.002	inactive: -0.061
CDC20 (UniProt Q12834)	inactive: 0.19	inactive: 0.054	inactive: 0.049	inactive: 0.016	inactive: -0.023	inactive: -0.067	inactive: 0.024	inactive: 0.016	inactive: 0.103	inactive: -0.012	inactive: -0.009	inactive: -0.01	inactive: 0.067	inactive: -0.298	inactive: 0.111	inactive: 0.115	inactive: 0.056	inactive: 0.039	inactive: 0.099	inactive: 0.058
CDSN (UniProt Q15517)	inactive: 0.356	inactive: -0.097	inactive: -0.931	inactive: 0.063	inactive: 0	inactive: -0.085	inactive: 0.212	inactive: -0.041	inactive: -0.014	inactive: -0.032	inactive: 0.039	inactive: 0.227	inactive: -0.029	inactive: 0.12	inactive: 0.017	inactive: -0.004	inactive: -0.186	inactive: -0.253	inactive: 0.081	inactive: 0.863
CDK2AP1 (UniProt O14519)	inactive: 0.143	inactive: 0.031	inactive: 0.148	inactive: 0.033	inactive: 0.1	inactive: -0.059	inactive: -0.083	inactive: 0.03	inactive: -0.055	inactive: 0.031	inactive: -0.02	inactive: 0.14	inactive: 0.203	inactive: 0.067	inactive: 0.169	inactive: 0.037	inactive: -0.232	inactive: 0.04	inactive: -0.069	inactive: -0.084
CDC123 (UniProt O75794)	inactive: -0.052	inactive: 0.014	inactive: 0.04	inactive: -0.12	inactive: -0.05	inactive: 0.032	inactive: 0.018	inactive: -0.021	inactive: 0.012	inactive: 0.013	inactive: 0.019	inactive: -0.125	inactive: 0.009	inactive: 0.007	inactive: -0.03	inactive: 0.018	inactive: 0.136	inactive: -0.004	inactive: -0.023	inactive: -0.001
CDC25B (UniProt P30305)	inactive: 0.058	inactive: -0.193	inactive: -0.014	inactive: 0	inactive: 0.095	inactive: 0.015	inactive: 0.036	inactive: 0.042	inactive: -0.067	inactive: 0.007	inactive: 0.049	inactive: -0.083	inactive: 0.01	inactive: -0.117	inactive: 0.019	inactive: 0.028	inactive: 0.052	inactive: 0.046	inactive: -0.036	inactive: -0.043
CDR2 (UniProt Q01850)	inactive: -0.063	inactive: -0.002	inactive: -0.013	inactive: 0.091	inactive: 0.025	inactive: 0.072	inactive: 0.013	inactive: -0.01	inactive: -0.044	inactive: 0.116	inactive: 0.024	inactive: 0.048	inactive: 0.043	inactive: 0.106	inactive: 0.158	inactive: 0.042	inactive: 0.031	inactive: 0.002	inactive: 0.051	inactive: -0.086
CEBPZ (UniProt Q03701)	inactive: -0.039	inactive: 0.039	inactive: 0.014	inactive: 0.016	inactive: -0.003	inactive: -0.004	inactive: -0.05	inactive: -0.016	inactive: 0.05	inactive: -0.005	inactive: -0.021	inactive: -0.074	inactive: -0.006	inactive: -0.047	inactive: 0.002	inactive: 0.098	inactive: -0.072	inactive: 0.01	inactive: -0.026	inactive: -0.002
CDK2 (UniProt P24941)	inactive: -0.012	inactive: 0.012	inactive: -0.01	inactive: -0.059	inactive: -0.025	inactive: 0.008	inactive: -0.055	inactive: 0.167	inactive: -0.017	inactive: 0.09	active: 0.304	inactive: 0.021	inactive: 0.08	inactive: 0.196	inactive: 0.048	inactive: 0.016	inactive: -0.012	inactive: -0.01	inactive: 0.072	inactive: -0.012
CDIPT (UniProt O14735)	inactive: 0.044	inactive: -0.018	inactive: 0.041	inactive: -0.016	inactive: -0.023	inactive: 0.028	inactive: 0.045	inactive: -0.063	inactive: 0.036	inactive: 0.018	inactive: -0.058	inactive: -0.039	inactive: -0.005	inactive: 0.02	inactive: -0.064	inactive: 0.043	inactive: -0.045	inactive: 0.059	inactive: -0.151	inactive: 0.069
CFAP20 (UniProt Q9Y6A4)	inactive: 0.021	inactive: 0.016	inactive: 0.001	inactive: 0.053	inactive: 0.013	inactive: -0.012	inactive: -0.258	inactive: 0.119	inactive: 0.005	inactive: 0.009	inactive: -0.123	inactive: -0.012	inactive: 0.009	inactive: -0.015	inactive: 0.051	inactive: 0.064	inactive: -0.016	inactive: -0.01	inactive: -0.004	inactive: 0.012
CHAC2 (UniProt Q8WUX2)	inactive: -0.028	inactive: -0.004	inactive: -0.006	inactive: -0.044	inactive: 0.006	inactive: 0.02	active: 0.649	inactive: -0.154	inactive: -0.018	inactive: -0.031	inactive: 0.223	inactive: 0.019	inactive: 0.092	inactive: 0.028	inactive: 0.019	inactive: 0.06	inactive: 0.003	inactive: -0.039	inactive: -0.007	inactive: 0
CERT isoform 3 (UniProt Q9Y5P4)	inactive: 0.001	inactive: 0.022	inactive: 0.001	inactive: 0.007	inactive: -0.003	inactive: 0.005	inactive: -0.013	inactive: 0.028	inactive: -0.023	inactive: 0.003	inactive: -0.026	inactive: -0.003	inactive: 0.005	inactive: -0.004	inactive: 0	inactive: 0.02	inactive: -0.019	inactive: -0.013	inactive: 0.008	inactive: 0.036
CDC37L1 (UniProt Q7L3B6)	inactive: 0.035	inactive: -0.003	inactive: 0.121	inactive: 0.069	inactive: 0.01	inactive: -0.033	inactive: -0.033	inactive: -0.002	inactive: 0.033	inactive: 0.028	inactive: -0.018	inactive: -0.008	inactive: 0.069	inactive: 0.021	inactive: 0.074	inactive: -0.002	inactive: -0.029	inactive: -0.096	inactive: 0.006	inactive: 0.04
CENPK (UniProt Q9BS16)	inactive: 0.094	inactive: 0.046	inactive: 0.126	inactive: 0.047	inactive: 0.137	inactive: 0.031	inactive: 0.041	inactive: -0.004	inactive: 0.032	inactive: 0.038	inactive: -0.036	inactive: 0.006	inactive: -0.008	inactive: -0.003	inactive: 0.016	inactive: 0.006	inactive: 0.002	inactive: -0.015	inactive: 0.041	inactive: -0.063

A few values from the entries so far.
log2 fold change (vemurafenib), CDC123 (UniProt O75794) is entered as inactive: -0.052
log2 fold change [6], CEBPZ (UniProt Q03701) is entered as inactive: -0.006
